This passage reports binding results from article PMC3158767.

For this experiment, the target named is T1, lamin B1 (endogenous, PC12 cells) (rat (endogenous in PC12)) (UniProt P70615).
T1 sequence: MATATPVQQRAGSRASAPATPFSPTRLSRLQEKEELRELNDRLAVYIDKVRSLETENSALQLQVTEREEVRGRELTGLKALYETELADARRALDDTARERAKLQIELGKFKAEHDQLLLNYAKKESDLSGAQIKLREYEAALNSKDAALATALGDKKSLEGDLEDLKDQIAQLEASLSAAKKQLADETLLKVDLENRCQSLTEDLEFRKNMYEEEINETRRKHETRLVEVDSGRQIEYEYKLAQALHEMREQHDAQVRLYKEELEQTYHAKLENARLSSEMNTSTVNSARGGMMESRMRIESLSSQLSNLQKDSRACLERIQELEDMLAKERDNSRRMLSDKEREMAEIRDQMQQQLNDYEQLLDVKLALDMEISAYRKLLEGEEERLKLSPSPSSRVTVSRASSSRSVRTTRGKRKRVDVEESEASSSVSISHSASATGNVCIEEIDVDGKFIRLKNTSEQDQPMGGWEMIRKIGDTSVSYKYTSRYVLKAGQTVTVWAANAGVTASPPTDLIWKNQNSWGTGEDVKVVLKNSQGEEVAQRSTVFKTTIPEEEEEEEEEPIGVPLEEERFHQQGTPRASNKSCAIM
The experiment is described as follows: co-IP; PC12 protein extracts incubated 1 h at 4°C with anti-lamin B1 antibody bound to protein G-agarose; washed in RIPA buffer; western blot with anti-lamin B1 and anti-Dp71 (H4); irrelevant antibody (IgG0) as control.

Results are given in words; binding and its absence hold for the method and conditions named. In cells and extracts the contact can be indirect. Binding calls can cover weak binding; strength is not graded here.

As to “dystrophin Dp71 (endogenous, PC12 cells) (rat (endogenous in PC12))”, the binding entry was “binds”.
